# The list shows a part of the results.
# Test system: T1, CTL2-GFP (C. trachomatis L2/434/Bu, GFP-expressing)
# T1 construct: L2/434/Bu, GFP-expressing
# Parameters: species or system HeLa; Intracellular C. trachomatis growth in HeLa cells, bulk GFP fluorescence relative to DMSO
# Settings: bulk GFP, single well; 28.5 h, 10 µM; inhibitor
row,Compound,% of control remaining
1,CCOC(=O)C1=NN(C(=O)c2ccc(Cl)cc2)C(O)(C(C)(C)C)C1 (stereo not shown) [CBK026308],112.093%
2,OC1CSc2nc(-c3cnccn3)nn2C1 (stereo not shown) [CBK027096],122.037%
3,S=c1[nH]nnn1-c1ccc(Cl)c(Cl)c1 [CBK016327],148.215%
4,O=C(NCCCn1cc(Cl)cn1)N1CCCN(Cc2cccs2)CC1 [CBK307279],121.42%
5,CC(=O)Nc1ccc(-c2ccc(C(=O)NCc3cccnc3)cn2)cc1 [CBK158842],90.13%
6,N#Cc1ccc(NCc2ccccc2CN2CCCC2CO)nc1 (stereo not shown) [CBK304055],132.871%
7,CCN1C(=O)/C(=C/c2cc3c(cc2Cl)OCO3)NC1=S [CBK265117],100%
8,O=C(c1ccccc1)C1(CO)COCc2nccn21 (stereo not shown) [CBK009980],141.118%
9,COCOc1ccc(-c2nc(-c3cccs3)cnc2N)cc1 [CBK063977],165.885%
10,O=C(Nc1nnc(C(F)(F)F)s1)c1ccc(F)c(Cl)c1 [CBK076831],96.1138%
11,COc1cc(CN2CCN(S(=O)(=O)c3ccc(Cl)cc3)CC2)cc(OC)c1OC [CBK074499],109.869%
12,Oc1ccc(-n2ncc(-c3ccc(F)cc3)n2)cc1 [CBK112904],108.606%
13,Nc1nonc1C(=O)NCc1cccnc1 [CBK025695],147.001%
14,c1ccc(-c2nnc(Cn3cncn3)o2)cc1 [CBK011113],120.98%
15,COc1cc(OC)cc(C(=O)N[C@@H]2CC[C@@]3(c4ccc(OC)c(OC)c4)CCN(C)[C@H]3C2)c1 [CBK074242T],132.165%
16,O=C(O)CCC(=O)Nc1ccc(Br)c2cccnc12 [CBK265186],100%
17,CCCCNC(=O)c1ccc2c(c1)NC(=O)C(N1CCCC1)S2 (stereo not shown) [CBK071762],111.376%
18,CN(C)S(=O)(=O)c1cc(C(=O)NCCc2c[nH]c3ccccc23)c(Cl)cc1Cl [CBK265883],120.801%
19,CC(C)(c1ccc(OC(=O)c2ccc(N)cc2)cc1)c1ccc(OC(=O)c2ccc(N)cc2)cc1 [CBK260962],100%
20,COc1cccc(NC(=O)C(=O)NCCCO)c1 [CBK262095],106.909%

# Filtered by structure, the compounds so far containing an NH in an aromatic ring (2)
row,Compound,% of control remaining
3,S=c1[nH]nnn1-c1ccc(Cl)c(Cl)c1 [CBK016327],148.215%
18,CN(C)S(=O)(=O)c1cc(C(=O)NCCc2c[nH]c3ccccc23)c(Cl)cc1Cl [CBK265883],120.801%

# Following part:

row,Compound,% of control remaining
1,CCN1CCN(c2ccc(N3C(=O)N[C@@H](C(C)C)C3=O)cc2)CC1 [CBK287953],146.832%
2,NS(=O)(=O)c1cc(C(=O)OCC(=O)c2ccccc2)c(Cl)cc1Cl [CBK264542],122.143%
3,CCOc1ccc2nc(NC3=NC(CC(=O)O)C(=O)N3)nc(C)c2c1 (stereo not shown) [CBK263120],103.213%
4,O=C(CSCc1nc(O)c2c3c(sc2n1)CCCC3)Nc1ccc(F)cc1 [CBK265568],116.876%
5,COc1cc(CNc2nn[nH]n2)ccc1OCc1ccc(F)cc1Cl [CBK269536],112.378%
6,c1cn2cc(-c3ccoc3)nc(NC3CC3)c2n1 [CBK066720],175.393%
7,Cc1cc(Cl)ccc1OCC(=O)Nc1ccc(O)cc1C(=O)O [CBK131706],136.195%
8,CN(C)c1ccc(-c2nc(-c3ccco3)cnc2N)cc1 [CBK063934],56.3751%
9,CN(C)CCCNC(=O)c1cc(C(C)(C)C)nn1Cc1ccc(Cl)cc1Cl [CBK107286],90.1996%
10,Cc1nc2nc(-c3ccc(F)cc3F)cn2nc1C [CBK284564],136.597%
11,COc1c(Cl)cc(Cl)cc1CNC(C)(C)CO [CBK270212C],180.762%
12,COC(=O)N/N=C(\C)c1ccc(Br)s1 [CBK027886],120.583%
13,O=C(O)COc1ccc2c(=O)c(Oc3ccccc3Br)c(C(F)(F)F)oc2c1 [CBK263747],113.417%
14,CCCn1cnnc1CN(C)C(=O)NCCc1nc2ccccc2s1 [CBK307663],124.244%
15,COc1cccc(C(=O)COC(=O)c2cc(-c3ccccc3)nc3ccc(Br)cc23)c1 [CBK265143],144.044%
16,CCOC(=O)N1CCN(Cc2ccc(O)c(OC)c2)CC1 [CBK261873],100%
17,OCCOc1ccc(OCCOc2nccnc2N2CCNCC2)cc1 [CBK014349G],116.407%
18,Cc1nccn1CC(=O)N1CCCC1(C)C(=O)NC1CCCC1 (stereo not shown) [CBK281539],104.667%
19,CC(=O)Nc1ccc(-c2ccc(COC3CCN(C(=O)c4ccc(F)cc4F)CC3)cc2)cc1 [CBK149216],106.655%
20,O=C(Nc1cccnc1)c1cccc(S(=O)(=O)N2CCCC2)c1 [CBK269846],109.567%

# From PMC12040169 (PLOS Biology, 2025)
